These results are taken from article PMC12804375.

These are yes or no findings as the source states them, for the method shown. In cells and extracts the contact can be indirect. A yes stands for co-enrichment or nearness to the bait. Other partners may have been found.

Test [1] deals with tripartite motif containing 47 (human (endogenous in HuCCT1)) (UniProt Q96LD4). In words: affinity purification with mass spectrometry; co-IP from HuCCT1 total protein with TRIM47 antibodies and Protein A/G-agarose beads; IP buffer 20 mM Tris pH 8.0, 150 mM NaCl, 1 mM EDTA, PMSF; SDS-PAGE, trypsin, LC-MS (Q Exactive HF-X); candidates at Log2FC >1 and p <0.05.
Test [2] has as its target T1, tripartite motif containing 47 (human (endogenous in HuCCT1)), Q96LD4.
T1 chain: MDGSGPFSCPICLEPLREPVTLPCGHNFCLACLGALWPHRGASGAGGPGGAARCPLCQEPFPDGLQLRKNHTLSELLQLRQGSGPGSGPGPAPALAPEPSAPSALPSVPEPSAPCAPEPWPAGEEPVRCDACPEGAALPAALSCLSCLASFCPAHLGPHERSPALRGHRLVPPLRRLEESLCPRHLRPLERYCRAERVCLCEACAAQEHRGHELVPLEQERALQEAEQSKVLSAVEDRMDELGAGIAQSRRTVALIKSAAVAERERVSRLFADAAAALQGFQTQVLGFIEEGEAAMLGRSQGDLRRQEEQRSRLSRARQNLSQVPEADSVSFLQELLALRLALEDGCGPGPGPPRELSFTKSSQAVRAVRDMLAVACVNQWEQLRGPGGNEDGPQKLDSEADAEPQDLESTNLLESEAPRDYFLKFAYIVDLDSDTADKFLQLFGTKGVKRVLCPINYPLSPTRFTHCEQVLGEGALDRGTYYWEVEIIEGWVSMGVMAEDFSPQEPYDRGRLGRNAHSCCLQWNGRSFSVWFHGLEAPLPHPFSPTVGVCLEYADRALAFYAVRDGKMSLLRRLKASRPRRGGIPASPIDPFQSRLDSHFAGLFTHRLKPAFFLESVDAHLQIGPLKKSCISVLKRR
The description is as above. To be noted: remark: other sources report otherwise.

B1: DLD (enzyme, UniProt P09622 36-509)
chain: ADQPIDADVTVIGSGPGGYVAAIKAAQLGFKTVCIEKNETLGGTCLNVGCIPSKALLNNSHYYHMAHGKDFASRGIEMSEVRLNLDKMMEQKSTAVKALTGGIAHLFKQNKVVHVNGYGKITGKNQVTATKADGGTQVIDTKNILIATGSEVTPFPGITIDEDTIVSSTGALSLKKVPEKMVVIGAGVIGVELGSVWQRLGADVTAVEFLGHVGGVGIDMEISKNFQRILQKQGFKFKLNTKVTGATKKSDGKIDVSIEAASGGKAEVITCDVLLVCIGRRPFTKNLGLEELGIELDPRGRIPVNTRFQTKIPNIYAIGDVVAGPMLAHKAEDEGIICVEGMAGGAVHIDYNCVPSVIYTHPEVAWVGKSEEQLKEEGIEYKVGKFPFAANSRAKTNADTDGMVKILGQKSTDRVLGAHILGPGAGEMVNEAALALEYGASCEDIARVCHAHPTLSEAFREANLAASFGKSINF
B1: the binding result in test [1] is given as “binds”.

B2: PC, P11498 21-1178 (enzyme)
chain: TAPAASPNVRRLEYKPIKKVMVANRGEIAIRVFRACTELGIRTVAIYSEQDTGQMHRQKADEAYLIGRGLAPVQAYLHIPDIIKVAKENNVDAVHPGYGFLSERADFAQACQDAGVRFIGPSPEVVRKMGDKVEARAIAIAAGVPVVPGTDAPITSLHEAHEFSNTYGFPIIFKAAYGGGGRGMRVVHSYEELEENYTRAYSEALAAFGNGALFVEKFIEKPRHIEVQILGDQYGNILHLYERDCSIQRRHQKVVEIAPAAHLDPQLRTRLTSDSVKLAKQVGYENAGTVEFLVDRHGKHYFIEVNSRLQVEHTVTEEITDVDLVHAQIHVAEGRSLPDLGLRQENIRINGCAIQCRVTTEDPARSFQPDTGRIEVFRSGEGMGIRLDNASAFQGAVISPHYDSLLVKVIAHGKDHPTAATKMSRALAEFRVRGVKTNIAFLQNVLNNQQFLAGTVDTQFIDENPELFQLRPAQNRAQKLLHYLGHVMVNGPTTPIPVKASPSPTDPVVPAVPIGPPPAGFRDILLREGPEGFARAVRNHPGLLLMDTTFRDAHQSLLATRVRTHDLKKIAPYVAHNFSKLFSMENWGGATFDVAMRFLYECPWRRLQELRELIPNIPFQMLLRGANAVGYTNYPDNVVFKFCEVAKENGMDVFRVFDSLNYLPNMLLGMEAAGSAGGVVEAAISYTGDVADPSRTKYSLQYYMGLAEELVRAGTHILCIKDMAGLLKPTACTMLVSSLRDRFPDLPLHIHTHDTSGAGVAAMLACAQAGADVVDVAADSMSGMTSQPSMGALVACTRGTPLDTEVPMERVFDYSEYWEGARGLYAAFDCTATMKSGNSDVYENEIPGGQYTNLHFQAHSMGLGSKFKEVKKAYVEANQMLGDLIKVTPSSKIVGDLAQFMVQNGLSRAEAEAQAEELSFPRSVVEFLQGYIGVPHGGFPEPFRSKVLKDLPRVEGRPGASLPPLDLQALEKELVDRHGEEVTPEDVLSAAMYPDVFAHFKDFTATFGPLDSLNTRLFLQGPKIAEEFEVELERGKTLHIKALAVSDLNRAGQRQVFFELNGQLRSILVKDTQAMKEMHFHPKALKDVKGQIGAPMPGKVIDIKVVAGAKVAKGQPLCVLSAMKMETVVTSPMEGTVRKVHVTKDMTLEGDDLILEIE
Take B2: in test [2], the binding result was “binds”.

B3: PDHB (enzyme, UniProt P11177 31-359)
chain: LQVTVRDAINQGMDEELERDEKVFLLGEEVAQYDGAYKVSRGLWKKYGDKRIIDTPISEMGFAGIAVGAAMAGLRPICEFMTFNFSMQAIDQVINSAAKTYYMSGGLQPVPIVFRGPNGASAGVAAQHSQCFAAWYGHCPGLKVVSPWNSEDAKGLIKSAIRDNNPVVVLENELMYGVPFEFPPEAQSKDFLIPIGKAKIERQGTHITVVSHSRPVGHCLEAAAVLSKEGVECEVINMRTIRPMDMETIEASVMKTNHLVTVEGGWPQFGVGAEICARIMEGPAFNFLDAPAVRVTGADVPMPYAKILEDNSIPQVKDIIFAIKKTLNI
Take B3: the binding entry in test [1] is on record as “binds”.

B4: MDH1 (enzyme, UniProt P40925 1-334)
chain: MSEPIRVLVTGAAGQIAYSLLYSIGNGSVFGKDQPIILVLLDITPMMGVLDGVLMELQDCALPLLKDVIATDKEDVAFKDLDVAILVGSMPRREGMERKDLLKANVKIFKSQGAALDKYAKKSVKVIVVGNPANTNCLTASKSAPSIPKENFSCLTRLDHNRAKAQIALKLGVTANDVKNVIIWGNHSSTQYPDVNHAKVKLQGKEVGVYEALKDDSWLKGEFVTTVQQRGAAVIKARKLSSAMSAAKAICDHVRDIWFGTPEGEFVSMGVISDGNSYGVPDDLLYSFPVVIKNKTWKFVEGLPINDFSREKMDLTAKELTEEKESAFEFLSSA
For the molecule B4, in test [1], the binding entry is listed as “binds”.

B5: DLAT (enzyme, UniProt P10515 87-647)
chain: SLPPHQKVPLPSLSPTMQAGTIARWEKKEGDKINEGDLIAEVETDKATVGFESLEECYMAKILVAEGTRDVPIGAIICITVGKPEDIEAFKNYTLDSSAAPTPQAAPAPTPAATASPPTPSAQAPGSSYPPHMQVLLPALSPTMTMGTVQRWEKKVGEKLSEGDLLAEIETDKATIGFEVQEEGYLAKILVPEGTRDVPLGTPLCIIVEKEADISAFADYRPTEVTDLKPQVPPPTPPPVAAVPPTPQPLAPTPSAPCPATPAGPKGRVFVSPLAKKLAVEKGIDLTQVKGTGPDGRITKKDIDSFVPSKVAPAPAAVVPPTGPGMAPVPTGVFTDIPISNIRRVIAQRLMQSKQTIPHYYLSIDVNMGEVLLVRKELNKILEGRSKISVNDFIIKASALACLKVPEANSSWMDTVIRQNHVVDVSVAVSTPAGLITPIVFNAHIKGVETIANDVVSLATKAREGKLQPHEFQGGTFTISNLGMFGIKNFSAIINPPQACILAIGASEDKLVPADNEKGFDVASMMSVTLSCDHRVVDGAVGAQWLAEFRKYLEKPITMLL
For the molecule B5, the binding result in test [1] is “binds”.
